# In PubChem BioAssay AID540276 (National Center for Advancing Translational Sciences (NCATS), 2011):
# “And” between values parts separate entries of the source, which are not always exact repeats. Equal values may be shown once. Out of some 300,000 compounds screened, about 5,400 (1.8%) were called active. The inconclusive results got no clear call from the source; some entries with a clear call stand among them for comparison. The call rests on the fitted dose curve; tested in HEK293 cells. Potencies of inconclusive entries are doubtful fits and often do not repeat.
# Test: qHTS for inhibitors of binding or entry into cells for Marburg Virus
# Settings: Marburg virus pseudotyped entry inhibition, cell reporter; series mostly up to 37.8 µM
# Potency means the concentration at half of the fitted maximal effect.
row,SMILES,Potency
1,CC(=O)NC1=NN(C(C)=O)C(C)(c2ccc(Cl)s2)S1 (centres undefined),"inconclusive: 1.3 µM [inhibitor, full curve, poor fit]"
2,CCCCNc1nnc(SCC(=O)c2c[nH]c3ccccc23)s1,"inconclusive: 3.16 µM [inhibitor, partial curve, poor fit]"
3,C/C(=N\NC(=S)NCCc1ccccc1)c1cccc(Br)c1,"inconclusive: 35.5 µM [inhibitor, single point]"
4,CCOc1ccc(-n2ccnc(SCC(=O)Nc3ccc(OC)cc3OC)c2=O)cc1,"inconclusive: 22.4 µM [inhibitor, single point]"
5,CN=C1NC(C)(C)C2CCC(C)(CC2)S1,"inconclusive: 11.2 µM [inhibitor, partial curve]"
6,COc1ccc(-c2csc(NC(=O)COC(=O)c3ccco3)n2)cc1,"inconclusive: 2.82 µM [activator, single point]"
7,O=S1(=O)c2cccc3cccc(c23)N1Cc1nnc(-c2ccccc2Br)o1,"inconclusive: 17.8 µM [inhibitor, partial curve, poor fit]"
8,COc1ccc(OC)c(-c2csc(N(C)C(=O)Cc3ccccc3)n2)c1,"inconclusive: 35.5 µM [inhibitor, single point]"
9,CCOc1cc(C)c(C(C)C)cc1S(=O)(=O)n1cnc(C)c1,"inconclusive: 3.16 µM [inhibitor, single point]"
10,CN(C)CCC=C1c2ccccc2C=Cc2ccccc21,active: 6.51 µM and active: 15.8 µM
11,CC(C)Nc1nc(NC(C)C)nc(N(C#N)CCOc2ccc(Cl)cc2Cl)n1,"inconclusive: 29.1 µM [inhibitor, single point]"
12,O=C(Nc1ccc(Br)cc1)N1CCCCCCC1,"inconclusive: 35.5 µM [activator, partial curve, poor fit]"
13,COc1ccc(C2CC(c3ccccc3)=NN2c2ccc(/C=N/NC(=O)c3ccncc3)cc2)cc1 (centres undefined),"inconclusive: 28.2 µM [inhibitor, single point]"
14,Cc1c(C(=O)OCc2ccccc2)[nH]c2c1C(=O)CC(c1ccc(Cl)cc1)C2 (centres undefined),inactive
15,CCOC(=O)C1CCN(c2c(NCCCN(CC)Cc3ccccc3)c(=O)c2=O)CC1,inactive
16,Cc1ccccc1Nc1nc(N)nc(CN(C)Cc2ccccc2Cl)n1,"inconclusive: 35.5 µM [inhibitor, single point]"
17,CCOC(=O)/C(C#N)=C/c1cn(CCC(=O)O)nc1-c1ccc(Cl)cc1,"inconclusive: 20 µM [activator, single point]"
18,Cn1nnnc1SCCCNCc1cccc(OCc2ccccc2)c1,"inconclusive: 17.8 µM [inhibitor, single point]"
19,CCCc1nnc(SCC(=O)N2CCOCC2)n1CC1CCCO1 (centres undefined),inactive
20,c1ccc(CCc2nn3c(-c4ccncc4)nnc3s2)cc1,"inconclusive: 14.6 µM [inhibitor, single point]"
21,COc1cccc(CN2CC(C(=O)NCc3cccc(N4CCCC4)c3)CCC2=O)c1 (centres undefined),inactive
22,COc1ccc(CC(=O)OCC(=O)NC2CCCCC2)cc1OC,inactive
23,O=C(Cc1ccc(Br)cc1)N1CCOCC1,inactive

row,SMILES,Potency
1,NC(N)=N/N=C/c1c(Cl)cccc1Cl,active: 11.2 µM
2,Cc1cccc(NC(=S)NNC(=O)c2cccc([N+](=O)[O-])c2)c1,inactive
3,COCCOC(=O)c1c(C)n(C)c2ccc(OC(=O)C3CC3)cc12,"inconclusive: 3.16 µM [activator, single point]"
4,Cc1nnsc1C(=O)NNc1ccc(C(C)(C)C)cc1,"inconclusive: 35.5 µM [inhibitor, single point]"
5,COc1ccc(CN2C(=O)/C(=C/c3ccncc3)SC2=S)cc1,"inconclusive: 22.4 µM [inhibitor, single point]"
6,COc1ccc(CN(C)CC(O)COc2ccc(-c3ccccc3)cc2)cc1OC (centres undefined),"inconclusive: 25.1 µM [inhibitor, single point]"
7,COc1ccc(Cl)cc1NC(=O)N1CCN(C2CCCCC2)CC1,"inconclusive: 29.1 µM [inhibitor, single point]"
8,CCc1ccc(NC(=O)C2=CC(c3cccs3)=NS(=O)(=O)N2C)cc1,inactive
9,CC(NC(=O)Nc1ccc([N+](=O)[O-])cc1)C(c1ccccc1)N1CCOCC1 (centres undefined),"inconclusive: 10 µM [inhibitor, partial curve, poor fit]"
10,CCN1CCN(CNC(=O)c2cnccn2)CC1,"inconclusive: 1.26 µM [inhibitor, full curve, poor fit]"
11,COc1ccc(NS(=O)(=O)c2cccc3ccccc23)cc1,"inconclusive: 3.98 µM [inhibitor, single point]"
12,O=C(Nc1ccc(C(=O)OC[C@@H]2CCCN3CCCC[C@H]23)cc1)c1cccc(Br)c1,active: 9.2 µM
13,CC(=O)Nc1ccc(NC(=O)COC(=O)c2ccc([N+](=O)[O-])o2)cc1,inactive
14,Cc1ccccc1NC(=S)NCCc1ccccc1,"inconclusive: 14.1 µM [activator, single point]"
15,O=C(Nc1ccc(N2CCCC2)cc1)c1ccc2ccccc2c1,inactive
16,Cc1nnc(SCc2nc3ccccc3s2)n1-c1ccccc1,inactive
17,CC(C)CN(CC(C)C)CC(O)Cn1cc(/C=C/C(=O)c2ccccc2)c2ccccc21 (centres undefined),inactive
18,O=C(OCC#CCSc1nnc(-c2ccc(Br)cc2)o1)c1cccs1,inactive
19,O=C(Cn1nnc(-c2ccc([N+](=O)[O-])cc2)n1)NNC(=O)c1ccccc1,inactive
20,Cc1ccc(NC(=O)CN2C(=O)NC3(CCc4ccccc43)C2=O)cc1Cl (centres undefined),"inconclusive: 0.398 µM [activator, single point]"
21,O=C(Nc1ccc(C(O)(C(F)(F)F)C(F)(F)F)cc1)c1ccc(Cl)c([N+](=O)[O-])c1,"inconclusive: 12.6 µM [inhibitor, single point]"
22,O=C(Nc1ccc2c(c1)OCO2)c1ccc(Br)c(S(=O)(=O)N2CCCC2)c1,"inconclusive: 3.55 µM [activator, single point]"
23,O=C(N/N=C\c1ccncc1)c1ccc(Br)s1,"inconclusive: 11.2 µM [inhibitor, partial curve, poor fit]"

row,SMILES,Potency
1,CCOC(=O)CCc1c(C)nc2cc(-c3ccc(Cl)cc3)[nH]n2c1=O,inactive
2,COc1ccc(OC)c(-n2c(O)cnc2Nc2nc(C)cc(C)n2)c1,"inconclusive: 0.316 µM [activator, single point]"
3,CNc1ccc(/C=C/C(=O)c2cccc3ccccc23)cc1[N+](=O)[O-],"inconclusive: 20 µM [inhibitor, single point]"
4,CC(C)(C)c1ccc(C(=O)NNC(=O)c2cccc(Br)c2)cc1,"inconclusive: 29.1 µM [inhibitor, single point]"
5,O=C(CN(C(=O)CCC(=O)Nc1nccs1)c1ccccc1F)NCC1CCCO1 (centres undefined),"inconclusive: 0.501 µM [inhibitor, partial curve, poor fit]"
6,CC(C)c1ccc(C(=O)Nc2cccnc2)cc1,active: 3.98 µM
7,COc1ccc(C(=O)NC2CC3CCCC(C2)N3CC(C)C)cc1 (centres undefined),"inconclusive: 1.26 µM [inhibitor, partial curve, poor fit]"
8,Cc1ccc(-n2[nH]c(C)c(C=Nc3cc(C)ccn3)c2=O)cc1,inactive
9,CC[n+]1c(/C=C2\C=C(C)CC(C)C2)sc2ccccc21 (centres undefined),"inconclusive: 17.8 µM [inhibitor, partial curve, poor fit]"
10,Cc1cc(C)c(C#N)c(SCC(=O)Nc2ccc(S(=O)(=O)Nc3onc(C)c3C)cc2)n1,"inconclusive: 3.66 µM [inhibitor, partial curve, poor fit]"
11,Cc1ccc(C23CC4CC(CC(NC(=O)NCCN(C)C)(C4)C2)C3)cc1,"inconclusive: 5.62 µM [activator, single point]"
12,CN1C(=O)C(CC(=O)Nc2ccc(Cl)cc2)N(Cc2ccco2)C1=S (centres undefined),inactive
13,Cc1nc2scc(-c3ccc(C(C)(C)C)cc3)c2c(=O)n1N,"inconclusive: 15.8 µM [inhibitor, single point]"
14,Cc1cc(C)cc(NC(=O)C(c2ccccc2)N2CCN(CC(=O)N3CCCC3)CC2)c1 (centres undefined),"inconclusive: 10 µM [inhibitor, partial curve, poor fit]"
15,CC(=O)Nc1ccc(NC(=O)CSc2nnc(NC(=O)c3ccc(Br)o3)s2)cc1,"inconclusive: 10 µM [inhibitor, partial curve, poor fit]"
16,O=C(Nc1ccc(Cl)c(Cl)c1)OCCNC(=O)c1ccncc1,"inconclusive: 17.8 µM [inhibitor, partial curve, poor fit]"
17,CCC(=O)Nc1cccc(NC(=O)c2ccc3c(c2)OCCO3)c1,inactive
18,Cn1c(CNC(=O)c2ccc(Cl)c(Cl)c2)nnc1SCC(=O)Nc1sc2c(c1C#N)CCCC2,"inconclusive: 29.1 µM [inhibitor, single point]"
19,Cc1cccc2nc(=S)n(C(=O)c3ccco3)n12,"inconclusive: 23.1 µM [activator, partial curve, poor fit]"
20,COc1ccccc1NS(=O)(=O)c1ccc(C)c(C(=O)NC2CCN(Cc3ccccc3)CC2)c1,"inconclusive: 11.2 µM [inhibitor, partial curve, poor fit]"
21,CCOc1ccc(C(=O)NCCNC(=O)c2ccc(OCC)cc2)cc1,"inconclusive: 35.5 µM [activator, single point]"
22,COc1ccc(CCN(C(=O)/C=C/C(=O)O)C2CC(=O)N(c3ccccc3)C2=O)cc1 (centres undefined),"inconclusive: 7.94 µM [activator, partial curve]"
23,Cc1[nH]nc2c1C(c1ccsc1)C1=C(CC(C)(C)CC1=O)N2 (centres undefined),"inconclusive: 1.12 µM [inhibitor, partial curve, poor fit]"

# Sorted by formula weight (smallest number first): part of the list above
row,SMILES,Potency
23,O=C(N/N=C\c1ccncc1)c1ccc(Br)s1,"inconclusive: 11.2 µM [inhibitor, partial curve, poor fit]"
7,COc1ccc(C(=O)NC2CC3CCCC(C2)N3CC(C)C)cc1 (centres undefined),"inconclusive: 1.26 µM [inhibitor, partial curve, poor fit]"
3,C/C(=N\NC(=S)NCCc1ccccc1)c1cccc(Br)c1,"inconclusive: 35.5 µM [inhibitor, single point]"
